Experimental data: paper PMC9136845
No constants are given. Whether binding was seen depends on the method and setting. Binding seen in cells or lysates may run through a third protein. A yes stands for co-enrichment or nearness to the bait. Other partners may have been found.

What was measured:
[1] = target: T1, embryonic ectoderm development (EED) GFP-fusion protein, O75530; test: affinity purification with mass spectrometry; GFP enrichment with antifouling pSB-co-(aGFP)8% beads (~93 million beads) from 1 mg nuclear extract of EED-GFP HeLa cells, WT HeLa nuclear extract as control; 90 min at 4 °C in nuclei lysis buffer (420 mM NaCl, 20 mM HEPES/KOH pH 7.9, 0.1% NP40); on-bead trypsin digestion, label-free nanoLC-MS/MS, triplicates; conditions: remark: other sources report otherwise
[2] = target: T1, embryonic ectoderm development (EED) …; test: affinity purification with mass spectrometry; GFP enrichment with Chromotek GFP-Trap magnetic beads (~93 million beads, 50 μL slurry) from 1 mg nuclear extract of EED-GFP HeLa cells, WT HeLa nuclear extract as control; 90 min at 4 °C in nuclei lysis buffer (420 mM NaCl, 20 mM HEPES/KOH pH 7.9, 0.1% NP40); on-bead trypsin digestion, label-free nanoLC-MS/MS, triplicates; conditions: remark: other sources report otherwise

B1: RBBP7, Q16576 1-425 (protein)
chain: MASKEMFEDTVEERVINEEYKIWKKNTPFLYDLVMTHALQWPSLTVQWLPEVTKPEGKDYALHWLVLGTHTSDEQNHLVVARVHIPNDDAQFDASHCDSDKGEFGGFGSVTGKIECEIKINHEGEVNRARYMPQNPHIIATKTPSSDVLVFDYTKHPAKPDPSGECNPDLRLRGHQKEGYGLSWNSNLSGHLLSASDDHTVCLWDINAGPKEGKIVDAKAIFTGHSAVVEDVAWHLLHESLFGSVADDQKLMIWDTRSNTTSKPSHLVDAHTAEVNCLSFNPYSEFILATGSADKTVALWDLRNLKLKLHTFESHKDEIFQVHWSPHNETILASSGTDRRLNVWDLSKIGEEQSAEDAEDGPPELLFIHGGHTAKISDFSWNPNEPWVICSVSEDNIMQIWQMAENIYNDEESDVTTSELEGQGS
How did the binding [1] turn out when B1 was run?
Its binding is “binds”.

What about the binding [2] of the same binder?
The binding was “binds”.
